Results deposited as PubChem BioAssay AID1508597 (Cure First, 2020)
This is an unselected part of the about 2,100 reagents, in one setting of the screen. 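Calls flag viability under 80% in either arm, not effects specific to rucaparib; the reference for percent is not stated.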 The numbers tell different reagents against one gene apart. A reagent listed more than once was tested more than once; the source does not tell the runs apart. Not given: the 100% reference.

- Aim: 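Survival screen with siRNA in ovarian cancer cells derived from patients, with or without rucaparib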 (primary screen)
- Cells: human ovarian carcinoma lines grown from tumours: OCI-P5x (papillary serous) and OCI-C5x (clear cell)
- Reagents: siRNA pool against human genes, 1.25 pmol siRNA per well
- Timing: 72 h or 96 h, depending on the cell culture
- Treatment: rucaparib 20 µM (about IC30) or vehicle, present until read-out
- Rucaparib or vehicle: Vehicle
- Cell line: OCI-P5x (serous)
- Read-out: 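Luminescent ATP-based viability assay read 72 or 96 h after transfection, depending on culture, given as normalised percent viability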
- Direction: viability, normalised: higher = more viable cells remaining
- Hit rule: 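a well counts as a hit if its normalised viability is under 80 percent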
- Calls: active = viability under 80%; inactive = viability 80% or more

| gene | pool no. | technical replicate | viability, normalised (%) | outcome |
| --- | --- | --- | --- | --- |
| RNF168 | 1 | 1 | 52.1 | active |
| RNF168 | 1 | 1 | 81.2 | inactive |
| RNF168 | 1 | 2 | 70.8 | active |
| RNF168 | 1 | 2 | 64 | active |
| RNF168 | 1 | 3 | 75 | active |
| RNF168 | 1 | 3 | 64 | active |
| EYA1 | 1 | 1 | 68.5 | active |
| EYA1 | 1 | 2 | 74.2 | active |
| EYA1 | 1 | 3 | 66.7 | active |
| FOXF2 | 1 | 1 | 82.8 | inactive |
| FOXF2 | 1 | 2 | 96.1 | inactive |
| FOXF2 | 1 | 3 | 96 | inactive |
| POLR1B | 1 | 1 | 56.7 | active |
| POLR1B | 1 | 2 | 50.7 | active |
| POLR1B | 1 | 3 | 64.7 | active |
| RB1 | 1 | 1 | 36.5 | active |
| RB1 | 1 | 2 | 54.4 | active |
| RB1 | 1 | 3 | 57.3 | active |
| POLH | 1 | 1 | 68.1 | active |
| POLH | 1 | 1 | 67.4 | active |
| POLH | 1 | 2 | 71 | active |
| POLH | 1 | 2 | 41.9 | active |
| POLH | 1 | 3 | 63 | active |
| POLH | 1 | 3 | 72.8 | active |
| ADGRA3 | 1 | 1 | 89.6 | inactive |
| ADGRA3 | 1 | 2 | 74.6 | active |
| ADGRA3 | 1 | 3 | 69.7 | active |

Sorted by “viability, normalised (%)” (descending): 7 of the entries above.
| gene | pool no. | technical replicate | viability, normalised (%) | outcome |
| --- | --- | --- | --- | --- |
| POLH | 1 | 2 | 71 | active |
| POLH | 1 | 1 | 68.1 | active |
| POLH | 1 | 1 | 67.4 | active |
| POLR1B | 1 | 3 | 64.7 | active |
| RB1 | 1 | 3 | 57.3 | active |
| RB1 | 1 | 2 | 54.4 | active |
| RB1 | 1 | 1 | 36.5 | active |

The listing continues.
| gene | pool no. | technical replicate | viability, normalised (%) | outcome |
| --- | --- | --- | --- | --- |
| MAPK12 | 1 | 1 | 89.6 | inactive |
| MAPK12 | 1 | 2 | 75.7 | active |
| MAPK12 | 1 | 3 | 86.7 | inactive |
| CLDN23 | 1 | 1 | 52.7 | active |
| CLDN23 | 1 | 2 | 70.6 | active |
| CLDN23 | 1 | 3 | 72.6 | active |
| RPS6KA2 | 1 | 1 | 98.1 | inactive |
| RPS6KA2 | 1 | 2 | 75.6 | active |
| RPS6KA2 | 1 | 3 | 90.4 | inactive |
| SIN3B | 1 | 1 | 52.6 | active |
| SIN3B | 1 | 2 | 53.8 | active |
| SIN3B | 1 | 3 | 63.9 | active |
| PDPK1 | 1 | 1 | 90.8 | inactive |
| PDPK1 | 1 | 2 | 86.2 | inactive |
| PDPK1 | 1 | 3 | 88.4 | inactive |
| ADAM9 | 1 | 1 | 42.8 | active |
| ADAM9 | 1 | 2 | 57.2 | active |
| ADAM9 | 1 | 3 | 49.5 | active |
| ZZZ3 | 1 | 1 | 75.4 | active |
| ZZZ3 | 1 | 2 | 84.2 | inactive |
| ZZZ3 | 1 | 3 | 68.8 | active |
| NEK3 | 1 | 1 | 89.3 | inactive |
| NEK3 | 1 | 2 | 85.2 | inactive |
| NEK3 | 1 | 3 | 78.5 | active |
| DSCC1 | 1 | 1 | 97 | inactive |
| DSCC1 | 1 | 2 | 110 | inactive |
| DSCC1 | 1 | 3 | 111 | inactive |
| TGFBR1 | 1 | 1 | 118 | inactive |
| TGFBR1 | 1 | 2 | 103 | inactive |
| TGFBR1 | 1 | 3 | 119 | inactive |
| HNRNPAB | 1 | 1 | 83.4 | inactive |
| HNRNPAB | 1 | 2 | 92.3 | inactive |
| HNRNPAB | 1 | 3 | 96.9 | inactive |
| BCR | 1 | 1 | 116 | inactive |
| BCR | 1 | 2 | 105 | inactive |
| BCR | 1 | 3 | 101 | inactive |
| MAPK1 | 1 | 1 | 75.7 | active |
| MAPK1 | 1 | 2 | 58.5 | active |
| MAPK1 | 1 | 3 | 70 | active |
| TERF2IP | 1 | 1 | 64.2 | active |
| TERF2IP | 1 | 2 | 76.6 | active |
| TERF2IP | 1 | 3 | 65.4 | active |
| TGFBR2 | 1 | 1 | 108 | inactive |
| TGFBR2 | 1 | 2 | 88.8 | inactive |
| TGFBR2 | 1 | 3 | 114 | inactive |
| PI4KB | 1 | 1 | 83.6 | inactive |
| PI4KB | 1 | 2 | 70.1 | active |
| PI4KB | 1 | 3 | 83.7 | inactive |
| PI4KB | 2 | 1 | 54.6 | active |
| PI4KB | 2 | 2 | 52.1 | active |
| PI4KB | 2 | 3 | 48.3 | active |
